Test [1] addresses T1, P-selectin glycoprotein ligand 1 (PSGL-1) with the O-bound glycan structure 6-sulfo N-acetyl lactosamine (6-sulfo LacNAc) (human) (UniProt Q14242).
T1 sequence (looked up): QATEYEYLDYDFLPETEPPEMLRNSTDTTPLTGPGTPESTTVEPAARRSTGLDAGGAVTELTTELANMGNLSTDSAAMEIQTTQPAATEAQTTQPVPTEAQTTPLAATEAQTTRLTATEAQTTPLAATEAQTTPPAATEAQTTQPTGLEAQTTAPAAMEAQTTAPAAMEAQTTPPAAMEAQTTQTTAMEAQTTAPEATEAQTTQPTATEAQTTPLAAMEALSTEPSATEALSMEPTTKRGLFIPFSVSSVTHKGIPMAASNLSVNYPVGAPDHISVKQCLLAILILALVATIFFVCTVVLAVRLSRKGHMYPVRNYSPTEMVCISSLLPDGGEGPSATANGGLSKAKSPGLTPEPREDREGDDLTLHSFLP
The test is described as follows: FACS on native slan-DCs, detection with anti-mouse-IgM-Alexa Fluor 488.

Test [2] addresses T1, P-selectin glycoprotein ligand 1 (PSGL-1) with the O-bound glycan structure 6-sulfo N-acetyl lactosamine (6-sulfo LacNAc) (human). Kind of test: FACS on slan-DCs.

Changes are numbered by the printed parent chain. No constants are given. Whether binding was seen depends on the method and setting. Some binding calls cover weakened binding; strength is not graded here.

B1: monoclonal IgM antibody MB4 (antibody, V domains shown)
VH: EVKLQESGPGLVQPSQSLSITCTVSGFSLTTYGVHWIRQSPGKGLEWLGVIWSGGGTDFNVAFMSRLSINKDNSKSQIFFKMNSLQANDTAIYYCARRTTNDGNYAFAYWGQGTLVTVS
VL: DIVMTQSPLSLPVSLGDQASISCRSSQNILHSDGSTYLEWYLQKPGQSPKLLIYKVSNRFSGVPDRFSGSGSGTDFTLKISRVEAEDLGVYYCFQGSHVPWTFGGGTKLEIKR
notes: also called anti-slan antibody MB4
As for B1, the binding result in test [1] and in test [2] was “binds” throughout.

B2: monoclonal IgM antibody MB6 (antibody, V domains shown)
VH: B1 VH with Q5E, E6Q, P14L, M64I, I78V
VL: B1 VL with S35N
notes: also called anti-slan antibody MB6
For the molecule B2, the binding result in test [1] and in test [2] was “binds” throughout.

Source of the values: patent publication US20150299312A1 (TECHNISCHE UNIVERSIT T DRESDEN, published 2015).
